Data from US11905338B2, “Peptides for use as cell-penetrating peptides” (CENTRE NATIONAL DE LA RECHERCHE SCIENTIFIQUE, priority 2018, dated 2024).

System: plasmid pGL3
Experiment: Agarose gel shift assay of CPP:plasmid complexes
Format: binding
Settings: agarose gel 0.5%
Text: The CPP1 and CPP2 peptides formed complexes when they were associated with oligonucleotides such as a plasmid (FIG. 3). The formation of the complexes was visualized using an agarose gel (0.5%) as described above for the complexation of the CPP with a siRNA. At a charge ratio (CR) corresponding to the charge neutrality (CR=1) between the CPP (positive charge) and the plasmid (negative charge), the plasmid was complexed by the CPP. The bulky CPP:plasmid complex was then no longer able to migrate into the agarose gel.
The intensity of the plasmid band alone was normalized to 100%. By successively increasing the CPP:plasmid charge ratio, the complexation of the pGL3 plasmid (6.56 kbp) was obtained, proportionally reducing its migration in the agarose gel (0.5%).

| Substance | Charge ratio (CR) at which the plasmid was complexed |
| --- | --- |
| LLRLLRWWWRLLRLL-NH2 [CPP2, LLRLLRWWWRLLRLL] | 1 |
| LLWRLWRLLWRLWRLL-NH2 [CPP1, LLWRLWRLLWRLWRLL] | 1 |

Where no end group is shown, it is not given here.
